Source: paper PMC7048761
No constants are given. Whether binding was seen depends on the method and setting. In cells and extracts the contact can be indirect.

Molecular target: INSIG
Assay: co-IP; HEK293T cells transfected with expression constructs (over-expressed); lysates in NP-40 buffer (150 mM NaCl, 5 mM EDTA, 1% NP-40, 50 mM Tris-HCl, pH 7.4), overnight at 4 °C with antibodies and protein A/G magnetic Dynabeads, three washes with lysis buffer, immunoblot

- binding: no binding
B1: SREBP Regulating Gene SPRING (C12ORF49) (protein, UniProt Q9H741 1-205)
chain: MVNLAAMVWRRLLRKRWVLALVFGLSLVYFLSSTFKQEERAVRDRNLLQVHDHNQPIPWKVQFNLGNSSRPSNQCRNSIQGKHLITDELGYVCERKDLLVNGCCNVNVPSTKQYCCDGCWPNGCCSAYEYCVSCCLQPNKQLLLERFLNRAAVAFQNLFMAVEDHFELCLAKCRTSSQSVQHENTYRDPIAKYCYGESPPELFPA
